# Test results taken from paper PMC7819943, “Rice protein-binding microarrays: a tool to detect cis-acting elements near promoter regions in rice”.
# Sequences of proteins named here, by UniProt entry; tags and fusion partners are left off.
# UniProt Q0JBA9, entry or part of it: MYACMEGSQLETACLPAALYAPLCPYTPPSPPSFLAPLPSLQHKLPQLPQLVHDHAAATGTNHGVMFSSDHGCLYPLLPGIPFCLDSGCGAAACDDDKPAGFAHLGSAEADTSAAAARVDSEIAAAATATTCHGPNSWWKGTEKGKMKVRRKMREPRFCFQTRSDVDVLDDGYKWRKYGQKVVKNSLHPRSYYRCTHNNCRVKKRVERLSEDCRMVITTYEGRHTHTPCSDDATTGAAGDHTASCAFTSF
# The other results are listed elsewhere or left out.
# Biological target: OsWRKY34 (Oryza sativa, UniProt Q0JBA9 1-250)
# Experiment: protein-binding microarray (RPBM); PBS, 2% BSA, 51.3 ng/ul salmon testes DNA, 50 uM zinc acetate, 200 nM TF, 25 C, 1 h; high values mean tight binding
# Conditions: protein: recombinant; tags: N-terminal polyhistidine and DsRed monomer fusion (pET32a); label: CyDye5-dUTP incorporated in the synthesized complementary strand; 3' TTTTT single-stranded linker to array surface; dsDNA, one strand shown
# Summary of the method: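 Using Ni–NTA, transcription factors fused N-terminally to polyhistidine and DsRed were purified after expression in E. coli BL21-CodonPlus. These were incubated at 200 nM with a blocked, double-stranded custom Agilent array for 1 h at 25 °C in a buffer containing 50 µM zinc acetate, and the array was washed. The binding signal is per-feature fluorescence intensity (arbitrary units) on an Axon 4000B scanner.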
row,Sequence,binding signal
1,ACTCCTATAACTCGTTTTCTATAGGCACATTTTCTAAATTCGGAGTCACCTAGTGCAG,9500 fluorescence intensity (a.u.)
2,GCCAACCGCATGCCGTCCCCGATGCCGCCCGCCGTCAACCCGGAGTCACCTAGTGCAG,8290 fluorescence intensity (a.u.)
3,CTGCTCAAGCAAGACTAATTACCGGTTGTTTACCCTACCTCGGAGTCACCTAGTGCAG,8210 fluorescence intensity (a.u.)
4,ACAGGAAACCCAATTCGATCCCTTCTATCTATCGATCCAACGGAGTCACCTAGTGCAG,8270 fluorescence intensity (a.u.)
5,AGTGTGCTCCATTTTCATTCGCTCTTAGATGTGTTTCATTCGGAGTCACCTAGTGCAG,9370 fluorescence intensity (a.u.)
6,AAGAGAGAGAGGGAGGGCAGCAGAAGGGGAGCGGCGAAGCCGGAGTCACCTAGTGCAG,9570 fluorescence intensity (a.u.)
7,CTTCACGGTCGGACTCGTCTTCTCCGGTCTCCCCAAATCGCGGAGTCACCTAGTGCAG,8150 fluorescence intensity (a.u.)
8,TCCCGGTGGAGTGGGAGGGGTGGCGGCTCAGACGGCGTGGCGGAGTCACCTAGTGCAG,12000 fluorescence intensity (a.u.)
9,TCGTCGATCATGTCACGGGCTCATCATCCACGCCGACGTACGGAGTCACCTAGTGCAG,8570 fluorescence intensity (a.u.)
10,CTTTTATCTCTTTCTCTGGCCACCAAGCTGGTTGTTGTATCGGAGTCACCTAGTGCAG,12200 fluorescence intensity (a.u.)
11,GCCGGACCCACCACCGCCACCACTGCCCATTCGCCACGTCCGGAGTCACCTAGTGCAG,13700 fluorescence intensity (a.u.)
12,TGACCTCACTTTTTTTTGTCACTTACATGCGGGCCCCACACGGAGTCACCTAGTGCAG,8460 fluorescence intensity (a.u.)
13,TAAACACACATCCTACCCAAACCCACGTATATATAAACCCCGGAGTCACCTAGTGCAG,8630 fluorescence intensity (a.u.)
14,GTGATTTTTGACTATTTACCTTGTATGGCTTGATTGCAACCGGAGTCACCTAGTGCAG,10000 fluorescence intensity (a.u.)
15,AGTAATCCCTACACGACACACAATCCCTACACTCTACCTGCGGAGTCACCTAGTGCAG,8240 fluorescence intensity (a.u.)
16,GTGCGGGAACTTTTTTTTTTGGTCATTTTTGTATGACGTGCGGAGTCACCTAGTGCAG,8240 fluorescence intensity (a.u.)
17,CTTTTCCCTTAATCTCTATTGTTGTTCAATCATTCAACCCCGGAGTCACCTAGTGCAG,8840 fluorescence intensity (a.u.)
18,CTTGCACTGTTGGTCTTGGGCCGTCTCGTCGAATGTTCCGCGGAGTCACCTAGTGCAG,9870 fluorescence intensity (a.u.)
19,CAGGGTTGGTCGCTACCACTTCGGAGGTGCCAGATCTGGCCGGAGTCACCTAGTGCAG,8310 fluorescence intensity (a.u.)
20,TCGGAGTGGGGAGATGGTGTCGGGGTGCTGGGTTTCCGGGCGGAGTCACCTAGTGCAG,13100 fluorescence intensity (a.u.)
21,TTACGAGCTCACATGTAATATTGTACATTTTTTCTCTTGACGGAGTCACCTAGTGCAG,10100 fluorescence intensity (a.u.)

row,Sequence,binding signal
1,CAGTGCGTGTCGTCGTTTCAAATTGGGCTCCATTTAAGTCCGGAGTCACCTAGTGCAG,8490 fluorescence intensity (a.u.)
2,GCGCGTCTCTCTCTCTCTCTCCTTCCGGGCAGCGCTTGCTCGGAGTCACCTAGTGCAG,9760 fluorescence intensity (a.u.)
3,TTTTATCCCTCGAGGGGACATCCCCTTGTTTTATGCATGTCGGAGTCACCTAGTGCAG,8790 fluorescence intensity (a.u.)
4,ATTCCTACCCGGACTCTTTATTTACCTTTCCCCAATTCTCCGGAGTCACCTAGTGCAG,10200 fluorescence intensity (a.u.)
5,ACTTCCCCTGTGTCCATGTTCGCCGCTGGTTCTTGATTCGCGGAGTCACCTAGTGCAG,10600 fluorescence intensity (a.u.)
6,TTACACCGATATTTTTTTAGTTGATTTATAAATCTAATTTCGGAGTCACCTAGTGCAG,8240 fluorescence intensity (a.u.)
7,CTCTCAAAATAATGTCTTTTCACCTCTTGAATGCCATCTACGGAGTCACCTAGTGCAG,8850 fluorescence intensity (a.u.)
8,CCAGTATCCCGAACCCTCTGGCCGTCCACTGTTCCTCGCCCGGAGTCACCTAGTGCAG,10900 fluorescence intensity (a.u.)
9,CCCACGCAGATCTCCGCTTTTTCCCGGCGGCAACCACGCCCGGAGTCACCTAGTGCAG,10200 fluorescence intensity (a.u.)
10,GTCCCTGTCGCCTTTATTAGCTGCGTGCAATTCCTTTCCACGGAGTCACCTAGTGCAG,8330 fluorescence intensity (a.u.)
11,ACGTCTAAATCCAACTCCACCTCTGTAGTTTATTTCGTAACGGAGTCACCTAGTGCAG,8450 fluorescence intensity (a.u.)
12,TGCCGTCCCTAGCTCCGCCCGCCTCCTCCTCCTCCGGTACCGGAGTCACCTAGTGCAG,8650 fluorescence intensity (a.u.)
13,TAATGGTTACCTGCCGGCCGTCCCTTCAACCACCAACAAACGGAGTCACCTAGTGCAG,10400 fluorescence intensity (a.u.)
14,GTCGCACTCACTCACTCGCATCCTCTCCTCTCAAATACTCCGGAGTCACCTAGTGCAG,12300 fluorescence intensity (a.u.)
15,CGTGTAGTGTAAATGTTGGGGCAGGTGATATTAATGTTCCCGGAGTCACCTAGTGCAG,9980 fluorescence intensity (a.u.)
16,GATGTTTGGGGTGCTTTTTGTAGTTTTTCCTGTATGTATTCGGAGTCACCTAGTGCAG,12200 fluorescence intensity (a.u.)
17,ACATTCAAGTTACTTTCATATATTAAGTCAACGGTTCATTCGGAGTCACCTAGTGCAG,8830 fluorescence intensity (a.u.)
18,CTCGTGTTCTAGTAGTTGTCAGTGTGTAGCCCATACCTATCGGAGTCACCTAGTGCAG,8610 fluorescence intensity (a.u.)
19,GCCCCACCACCCGTCGCCTCCGCTCTTCGCCGCGCCAGATCGGAGTCACCTAGTGCAG,8840 fluorescence intensity (a.u.)
20,GTGGTGTGCATAAGAGGAAAAATTACTGATTACTAGTATTCGGAGTCACCTAGTGCAG,9740 fluorescence intensity (a.u.)
21,ATAATGCGCGCTTCTTTTTCCAAATTGTGTTCTTAGTTGACGGAGTCACCTAGTGCAG,8920 fluorescence intensity (a.u.)

# Some of the entries so far, tab-delimited.
row	Sequence	binding signal
7	CTCTCAAAATAATGTCTTTTCACCTCTTGAATGCCATCTACGGAGTCACCTAGTGCAG	8850 fluorescence intensity (a.u.)
8	CCAGTATCCCGAACCCTCTGGCCGTCCACTGTTCCTCGCCCGGAGTCACCTAGTGCAG	10900 fluorescence intensity (a.u.)
